# In PubChem BioAssay AID483 (Columbia University Molecular Screening Center, 2006):
# Some of the results follow.
# Test: inhibitors of mutant huntingtin aggregation, primary screen, imaging, exon1htt(103Q)mCFP cells, high-content imaging (AID 483);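 also: compound exposure lasted 3 days before fixation; percent of the per-plate median nuclei count of sample wells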
# Settings: exon1htt(103Q)mCFP cell line, aggregate imaging; measured here: cell count, toxicity; at 2 µM
row,Compound,nuclei count [%]
1,Fc1ccccc1NC1CCN(Cc2ccccc2)CC1,99.2
